Measurements published in PubChem BioAssay AID493014 (National Center for Advancing Translational Sciences (NCATS), 2011).
Some of the results follow. The main result of the screen is listed elsewhere. These columns were measured beside it and carry no call. The list favours compounds with an active or inconclusive main result. Words in brackets tell the shape of the fitted curve; partial curves, single points and poor fits give uncertain potencies.

Assay: qHTS Assay to Find Inhibitors of Chronic Active B-Cell Receptor Signaling
Conditions: ABC-DLBCL IkBa-CBG/CBR reporter, luminescence ratio (green luciferase fused to IkBa over red control in TMD8 lymphoma cells), 4 h
Outline: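 Compounds up to 46 uM were incubated four hours with TMD8 cells whose green CBG68 luciferase is fused to IkappaBalpha; red CBR luminescence normalised the signal, and concentration-effect curves were fitted to fusion, red and ratio data.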

[1] = measured here: IkBa-CBG green luminescence
[2] = measured here: CBR red luminescence, cell number

SMILES | AC50 [1] | AC50 [2]
COc1cc(OC)c(OC)cc1/C=N/NC(=S)NCCN1CCOCC1 | 11.2 µM [falling, partial curve, poor fit] | –
CC(C)(CC(=O)O)CC(=O)N1CCN(c2nc3cc(Cl)ccc3s2)CC1 | – | 11.2 µM [falling, partial curve]
N#C/C(=C\c1cccc([N+](=O)[O-])c1)C(=O)NCc1ccc(Cl)cc1 | – | 20 µM [falling, single point]
C[C@@H](C(=O)NCc1ccccn1)[C@H]1C[C@]1(C)[C@H](NC(=O)OCc1ccccc1)c1ccccc1 | – | 18.4 µM [falling, single point]
COCC1CCN(Cc2c(C(=O)N3CCN(C4CCCCC4)CC3)nc3ccccn23)C1 (stereo not given) | – | 5.62 µM [rising, partial curve]
CCOC(=O)c1c(NC(=O)C2COc3ccccc3O2)sc2c1CC(C)(C)NC2(C)C (stereo not given) | – | 14.6 µM [falling, single point]
CCOC(=O)C1=C(C)OC2(O)c3ccccc3C(=O)C12O (stereo not given) | – | 17.8 µM [rising, single point]
COc1ccc2c3c([nH]c2c1)C(C)N(C(C)=O)CC3 (stereo not given) | – | 10 µM [rising, partial curve, poor fit]
CCOc1ccc(NC(=O)/C=C\C(=O)N(c2ccc(C(C)C)cc2)C(C(=O)NCc2ccco2)c2ccc(F)cc2)cc1 (stereo not given) | – | 35.5 µM [falling, single point]
CC(Oc1cccc(Br)c1)C(=O)NNC(=O)c1ccccn1 (stereo not given) | – | 14.6 µM [rising, partial curve]
Cc1nn(-c2ccccc2)c(N)c1C(O)(CSc1nccn1C)C(F)(F)F (stereo not given) | – | 1.16 µM [falling, full curve, poor fit]
CC(=O)NC12CC3CC(C1)CC(C(=O)Nc1c(C)n(C)n(-c4ccccc4)c1=O)(C3)C2 | – | 35.5 µM [rising, single point]
C=CCc1c(C)nc(C)nc1N/N=C/c1ccc(F)cc1 | – | 29.1 µM [rising, single point]
COc1ccccc1NC1=C(C)C(=O)CC1 | 23.1 µM [falling, partial curve, poor fit] | 25.9 µM [rising, partial curve, poor fit]
O=C(/C=C/c1ccccc1Cl)c1ccc[nH]1 | – | 18.4 µM [falling, single point]
COc1ccc(CNCCC(c2ccccc2)c2ccc3c(c2)OCO3)cc1 (stereo not given) | – | 1.12 µM [falling, full curve, poor fit]
COc1ccc(-c2oc(=O)c3cc(OC)c(OC)cc3c2-c2ccc3c(c2)OCO3)cc1 | – | 5.17 µM [rising, partial curve, poor fit]
O=S(=O)(c1ccc(Cl)cc1)N1CCCN(c2ccc(C(F)(F)F)cn2)CC1 | – | 8.91 µM [falling, partial curve, poor fit]
O=C(O)CC/C(=C\c1ccc(N2CCCC2)c([N+](=O)[O-])c1)c1nc2ccccc2s1 | – | 0.0891 µM [rising, full curve, poor fit]
Cc1cccc(CCNC(=O)CCNC(=O)Cn2ccc3ccccc3c2=O)c1 | – | 16.4 µM [rising, partial curve, poor fit]

2 of these compounds, reformatted:
Cc1nn(-c2ccccc2)c(N)c1C(O)(CSc1nccn1C)C(F)(F)F (stereo not given)
  AC50 [2]: 1.16 µM [falling, full curve, poor fit]
CC(=O)NC12CC3CC(C1)CC(C(=O)Nc1c(C)n(C)n(-c4ccccc4)c1=O)(C3)C2
  AC50 [2]: 35.5 µM [rising, single point]

The results go on:

SMILES | AC50 [1] | AC50 [2]
O=C(NC1CCN(C(=S)NCc2ccco2)CC1)NC12CC3CC(CC(C3)C1)C2 | – | 3.16 µM [falling, full curve, poor fit]
CCCc1cc(=O)oc2c(C)c(OC3CCCCC3=O)ccc12 (stereo not given) | – | 5.62 µM [falling, partial curve, poor fit]
CCCCn1c(NCc2cc(Cl)ccc2O)nc2ccccc21 | – | 15.8 µM [falling, single point]
CCOC(=O)C(C(=O)OCC)C(Nc1ccccc1)c1ccccc1 (stereo not given) | – | 10.3 µM [falling, partial curve, poor fit]
CN1CCN(Cn2cc(/C=C/C(=O)c3ccccc3)c3ccccc32)CC1 | – | 5.8 µM [falling, partial curve]
COc1cc([N+](=O)[O-])cc2sc(NC(=O)C3CC3)nc12 | – | 2.51 µM [falling, full curve]
Cn1c2ccccc2c2nnc(SCC(=O)Nc3cccc(O)c3)nc21 | – | 15.8 µM [falling, single point]
COc1ccc(NC(=O)CC2C(=O)N(c3ccc(F)cc3)C(=S)N2NC(=O)c2ccc(Cl)cc2)cc1 (stereo not given) | – | 16.4 µM [falling, partial curve]
O=C(CN1CCN(S(=O)(=O)c2ccccc2)CC1)Nc1ccccc1C(=O)NC1CC1 | – | 9.2 µM [rising, partial curve]
CC(C)N1CCc2c(sc(NC(=O)c3ccc(S(=O)(=O)N4CCc5ccccc54)cc3)c2C(N)=O)C1 | – | 10 µM [falling, partial curve, poor fit]
N#Cc1c(N)n(Cc2ccccc2)c(=O)c2cc([N+](=O)[O-])ccc12 | – | 5.01 µM [rising, full curve, poor fit]
O=C(O)CCn1nnc(-c2ccccc2)n1 | – | 3.98 µM [rising, partial curve, poor fit]
COc1ccccc1N1CCN(CC(O)COc2c(OC)cccc2OC)CC1 (stereo not given) | – | 28.2 µM [rising, partial curve, poor fit]
Cc1ccccc1NC(=O)C(=O)NCCc1c[nH]c2ccccc12 | – | 10 µM [falling, partial curve, poor fit]
Cc1cc(Nc2ccccc2)c2c([N+](=O)[O-])c(C)cc(C)c2n1 | – | 29.1 µM [rising, single point]
FC(F)(F)c1cccc(Oc2nc(-c3ccccc3)nnc2C(F)(F)F)c1 | – | 3.16 µM [falling, full curve]
Cc1cc(C)nc(NC(=O)c2c(Cl)cccc2Cl)n1 | – | 4.47 µM [falling, full curve]
O=[N+]([O-])c1cccc(C2=NCCS2)c1 | – | 2.31 µM [rising, full curve, poor fit]
Cc1cc(C)cc(N=C2NC(=O)/C(=C/c3cccs3)S2)c1 | – | 8.2 µM [falling, partial curve, poor fit]
